Record: PubChem BioAssay AID1259254 (NCATS, 2017)
Assay: 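Gene knock-downs that lead to re-replication, shown by excess G2 DNA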 (primary screen). System: human HCT116 colorectal cancer cells. Knock-down reagent: single siRNA against human genes. Timing: 3 days. Measured: 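Nuclei stained with Hoechst and imaged; cell-cycle phase assigned by DNA content; G2 share scaled per plate, non-targeting siRNA 0%, GMNN siRNA 100%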. Direction: G2 robust z-score: higher = more G2 cells, more excess DNA replication. Call rule: 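An siRNA counts as active if its G2 robust z-score lies at least 5 MADs above the screen median; here such calls match roughly 38% of GMNN control or more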.
This is an unselected part of about 59,000 deposited reagents. About 1,550 of all reagents (2.6%) were called active. 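G2 share is only a proxy for re-replication; each gene was hit by three separate siRNAs, and active genes were retested.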 Entries without a mark were called inactive. Further read-outs or replicates are left out here. The record does not give: the amount of reagent.

gene,PubChem SID,G2 robust z-score
CENPVL1,SID160766303,-0.65
CENPVL1,SID160766304,-0.873
CENPVL1,SID160766305,1.21
NBEAL1,SID160732462,-0.426
NBEAL1,SID160748237,-0.00289
NBEAL1,SID160748238,2.61
NBEAL1,SID160748239,-1.39
NBEAL1,SID160756923,-0.686
NBEAL1,SID160756924,-0.812
ECE2,SID160722895,-0.522
ECE2,SID160722896,0.0403
ECE2,SID160722897,-0.885
ECE2,SID160752075,0.309
ECE2,SID160752076,3.63
ECE2,SID160752077,0.839
NDRG1,SID160728329,0.173
NDRG1,SID160728330,0.171
NDRG1,SID160728331,0.727
MTIF2,SID160777534,0.318
MTIF2,SID160777535,0.424
MTIF2,SID160777537,-0.582
SH3BGRL,SID160716663,0.929
SH3BGRL,SID160716664,2.28
SH3BGRL,SID160733919,2.2
CCNO,SID160728134,-1.68
CCNO,SID160728135,0.433
CCNO,SID160730427,-1.13
PLEKHG6,SID160743208,0.172
PLEKHG6,SID160743209,2.96
PLEKHG6,SID160743210,-0.369
ITIH1,SID160776025,-0.834
ITIH1,SID160776026,1.6
ITIH1,SID160776027,0.00132
ACSM2B,SID160725125,-1.14
ACSM2B,SID160731125,-0.137
ACSM2B,SID160765053,0.141
GNAT3,SID160764909,-0.389
GNAT3,SID160764910,-0.616
GNAT3,SID160764911,-0.0525
ANGEL1,SID160736093,-1.2
ANGEL1,SID160736094,0.942
ANGEL1,SID160736096,-0.982
AWAT2,SID160759702,3.48
AWAT2,SID160759703,-0.548
AWAT2,SID160759704,-0.231
ZDHHC17,SID160736175,-0.941
ZDHHC17,SID160736176,-0.394
ZDHHC17,SID160736178,7.63 (active)
LAMP5,SID160736904,7.26 (active)
LAMP5,SID160736905,0.289
LAMP5,SID160736907,0.619
ASB17,SID160732428,0.518
ASB17,SID160756593,-0.0887
ASB17,SID160756594,-0.596
TRAPPC4,SID160740758,0.403
TRAPPC4,SID160740759,-0.132
TRAPPC4,SID160740760,1.34
NOA1,SID160752020,-0.941
NOA1,SID160752021,2.47
NOA1,SID160752022,-0.0908
GALK2,SID160768979,1.08
GALK2,SID160768988,-1.42
GALK2,SID160768998,-0.743
GINM1,SID160755384,-0.287
GINM1,SID160755385,-0.483
GINM1,SID160755387,0.894
GJD4,SID160732688,6.18 (active)
GJD4,SID160761346,6.15 (active)
GJD4,SID160761347,3.53

In a second layout: entries from further up.
{"gene": "CENPVL1", "PubChem SID": "SID160766305", "G2 robust z-score": 1.21}
{"gene": "NBEAL1", "PubChem SID": "SID160732462", "G2 robust z-score": -0.426}
{"gene": "NBEAL1", "PubChem SID": "SID160748237", "G2 robust z-score": -0.00289}
{"gene": "NBEAL1", "PubChem SID": "SID160748238", "G2 robust z-score": 2.61}
{"gene": "NBEAL1", "PubChem SID": "SID160748239", "G2 robust z-score": -1.39}
{"gene": "NBEAL1", "PubChem SID": "SID160756923", "G2 robust z-score": -0.686}
{"gene": "NBEAL1", "PubChem SID": "SID160756924", "G2 robust z-score": -0.812}
{"gene": "ECE2", "PubChem SID": "SID160722895", "G2 robust z-score": -0.522}
{"gene": "ECE2", "PubChem SID": "SID160722896", "G2 robust z-score": 0.0403}
{"gene": "ECE2", "PubChem SID": "SID160722897", "G2 robust z-score": -0.885}
{"gene": "ECE2", "PubChem SID": "SID160752075", "G2 robust z-score": 0.309}
